According to US12617757B2, “Compounds and modules for inhibition of pre-miR-21 and their use in treatment of certain cancers” (University of Florida Research Foundation, Incorporated, priority 2019, dated 2026):

Test system: proteome of MDA-MB-231 cells
Assay: Global proteomics profiling (LC-MS/MS) of MDA-MB-231 cells
Format: cell-based, human
Conditions: 50 nM
Protocol: Global proteomics profiling using LC-MS/MS. The MDA-MB-231 cells treated with vehicle (DMSO) or 5 (50 nM) were washed with PBS, harvested by scraping, centrifuged at 1500×g for five minutes at 4° C. and then resuspended in PBS. Cells were lysed by sonication and lysate protein concentrations were determined using a Bradford assay (Bio-Rad). Protein samples (40 μg) were denatured with 6 M urea in 50 mM NH4HCO3, reduced with 10 mM tris(2-carboxyethyl)phosphine hydrochloride (TCEP) for 30 minutes, and then alkylated with 25 mM iodoacetamide for 30 minutes in the dark. Samples were diluted to 2 M urea with 50 mM NH4HCO3, and digested with trypsin (2 μL of 0.5 μg/μL) in the presence of 1 mM CaCl2) for 12 hours at 37° C. […] Samples were analyzed by LC-MS/MS (see below) and the MS data was processed with MaxQuant and Proteome Discoverer (see below).
LC-MS/MS analysis: Peptides were resuspended in water with 0.1% formic acid (FA) and analyzed using an EASY-nLC 1200 nano-UHPLC coupled to Q Exactive HF-X Quadrupole-Orbitrap mass spectrometer (Thermo Scientific). […]
MaxQuant analysis: The MS data was analyzed with MaxQuant (V1.6.1.0)^27 and searched against the human proteome (Uniprot) and a common list of contaminants (included in MaxQuant). […] The minimum peptide length was set to 6 amino acids and peptide re-quantification and label-free quantification (MaxLFQ) were enabled. […]

## CCCN(CC(=O)N(CCC)CC(=O)N(CCC)CC(=O)N(CC(=O)NCCOCCOCCOCCOc1ccc(C=C2SC(Nc3ccccc3)=C(C(=O)OCC)C2=O)cc1O)Cc1cn(CCCNC(=O)CCCOc2ccc(-c3nc4cc(-c5ccc(N6CCN(C)CC6)cc5)ccc4[nH]3)cc2)nn1)C(=O)CN(Cc1cn(CCCNC(=O)CCCOc2ccc(-c3nc4cc(-c5ccc(N6CCN(C)CC6)cc5)ccc4[nH]3)cc2)nn1)C(C)=O [Compound 5]
  proteins significantly affected, of 4181: 47 proteins
  shift among downstream protein targets of miR-let-7-5p: no significant shift
